The list shows a part of the results.
Key:
Experiment in all cases: log2 fold change, soluble protein after heating vs DMSO (PISA); higher = thermal stabilisation; K562 lysate, 10 uM; active = over 0.2 and 3.5 SD of the protein, either way, in both replicates (recomputed)
lapatinib = compound: CS(=O)(=O)CCNCc1ccc(-c2ccc3ncnc(Nc4ccc(OCc5cccc(F)c5)c(Cl)c4)c3c2)o1 [lapatinib]
Method in brief: (§1)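 Quantification was by TMTpro 16plex LC-MS/MS with equalised channel sums, applied to the supernatant after 21,000xg for 90 min. Samples were crude K562 extract at 1 mg/mL protein in PBS pH 7.4 with 1 mM MgCl2, treated with 10 μM compound for 30 min, heated for 3 min across 48°C-58°C, pooled and brought to 0.5% NP-40 at 4°C. Values are log-two fold changes in thermal stability relative to solvent controls, from duplicates.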

Chains of the proteins cited; added tags and fusions are not shown. Lines headed by an entry give the natural chain unless they say otherwise; changes in a name come on top.
UniProt Q96SI9: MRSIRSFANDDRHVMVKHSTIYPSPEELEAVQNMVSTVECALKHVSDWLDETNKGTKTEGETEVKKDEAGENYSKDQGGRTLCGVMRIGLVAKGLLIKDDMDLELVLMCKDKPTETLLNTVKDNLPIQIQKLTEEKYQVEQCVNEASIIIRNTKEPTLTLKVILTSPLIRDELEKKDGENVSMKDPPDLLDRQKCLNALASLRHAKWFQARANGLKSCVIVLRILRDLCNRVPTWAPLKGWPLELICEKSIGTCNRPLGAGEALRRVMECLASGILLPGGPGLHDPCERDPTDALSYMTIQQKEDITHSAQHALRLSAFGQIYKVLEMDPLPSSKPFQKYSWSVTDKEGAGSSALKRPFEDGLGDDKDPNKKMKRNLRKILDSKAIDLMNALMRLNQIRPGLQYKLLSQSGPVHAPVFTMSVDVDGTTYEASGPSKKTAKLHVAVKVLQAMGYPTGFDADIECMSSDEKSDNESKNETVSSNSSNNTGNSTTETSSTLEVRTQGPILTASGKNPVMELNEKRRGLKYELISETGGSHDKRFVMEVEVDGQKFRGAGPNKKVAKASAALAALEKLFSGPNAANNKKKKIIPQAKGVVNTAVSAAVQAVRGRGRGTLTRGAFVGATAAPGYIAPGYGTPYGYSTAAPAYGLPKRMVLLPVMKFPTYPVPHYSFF
UniProt Q8NBK3: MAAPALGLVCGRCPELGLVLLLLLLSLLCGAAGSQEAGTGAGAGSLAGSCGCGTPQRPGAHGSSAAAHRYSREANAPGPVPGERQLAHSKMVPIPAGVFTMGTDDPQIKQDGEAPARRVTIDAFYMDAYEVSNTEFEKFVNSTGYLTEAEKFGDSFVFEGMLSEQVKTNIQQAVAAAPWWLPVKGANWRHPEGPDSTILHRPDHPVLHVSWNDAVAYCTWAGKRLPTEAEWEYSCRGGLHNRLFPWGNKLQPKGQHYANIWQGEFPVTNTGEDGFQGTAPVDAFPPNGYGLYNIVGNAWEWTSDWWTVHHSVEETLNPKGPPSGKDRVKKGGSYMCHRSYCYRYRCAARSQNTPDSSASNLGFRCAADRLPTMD
UniProt Q9NRP7: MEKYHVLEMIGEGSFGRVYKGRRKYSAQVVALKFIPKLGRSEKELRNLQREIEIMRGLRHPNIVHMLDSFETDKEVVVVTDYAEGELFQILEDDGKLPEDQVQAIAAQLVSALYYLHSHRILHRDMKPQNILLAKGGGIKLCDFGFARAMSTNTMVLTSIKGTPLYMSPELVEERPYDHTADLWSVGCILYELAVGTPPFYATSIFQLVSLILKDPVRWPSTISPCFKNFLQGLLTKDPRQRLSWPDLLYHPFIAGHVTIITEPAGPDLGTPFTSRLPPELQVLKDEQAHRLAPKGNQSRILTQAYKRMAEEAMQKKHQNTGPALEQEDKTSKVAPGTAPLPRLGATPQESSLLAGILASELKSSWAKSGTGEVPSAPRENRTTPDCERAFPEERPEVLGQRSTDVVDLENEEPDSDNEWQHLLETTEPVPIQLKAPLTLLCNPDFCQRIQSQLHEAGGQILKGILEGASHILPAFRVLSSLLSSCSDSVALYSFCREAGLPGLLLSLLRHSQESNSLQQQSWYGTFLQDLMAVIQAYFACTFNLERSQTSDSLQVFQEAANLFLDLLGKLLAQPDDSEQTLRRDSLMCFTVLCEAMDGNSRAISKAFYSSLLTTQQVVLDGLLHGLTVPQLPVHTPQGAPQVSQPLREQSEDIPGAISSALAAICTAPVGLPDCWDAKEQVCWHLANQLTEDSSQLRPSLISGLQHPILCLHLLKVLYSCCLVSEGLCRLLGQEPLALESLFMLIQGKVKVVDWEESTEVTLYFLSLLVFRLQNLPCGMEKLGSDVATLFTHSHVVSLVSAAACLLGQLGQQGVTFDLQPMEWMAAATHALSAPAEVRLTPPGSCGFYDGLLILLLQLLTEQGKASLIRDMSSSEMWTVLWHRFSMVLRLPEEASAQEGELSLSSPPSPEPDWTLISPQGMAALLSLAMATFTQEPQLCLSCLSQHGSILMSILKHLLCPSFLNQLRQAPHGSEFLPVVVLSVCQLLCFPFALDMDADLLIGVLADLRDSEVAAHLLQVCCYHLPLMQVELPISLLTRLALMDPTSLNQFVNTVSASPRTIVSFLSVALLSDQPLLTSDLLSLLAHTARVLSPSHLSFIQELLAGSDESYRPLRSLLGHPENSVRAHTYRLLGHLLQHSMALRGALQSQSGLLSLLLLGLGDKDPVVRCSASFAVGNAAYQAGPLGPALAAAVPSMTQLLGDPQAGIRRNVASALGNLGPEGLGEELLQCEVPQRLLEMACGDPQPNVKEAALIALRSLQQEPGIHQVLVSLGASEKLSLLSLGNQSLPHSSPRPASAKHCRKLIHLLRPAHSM
UniProt Q96I99: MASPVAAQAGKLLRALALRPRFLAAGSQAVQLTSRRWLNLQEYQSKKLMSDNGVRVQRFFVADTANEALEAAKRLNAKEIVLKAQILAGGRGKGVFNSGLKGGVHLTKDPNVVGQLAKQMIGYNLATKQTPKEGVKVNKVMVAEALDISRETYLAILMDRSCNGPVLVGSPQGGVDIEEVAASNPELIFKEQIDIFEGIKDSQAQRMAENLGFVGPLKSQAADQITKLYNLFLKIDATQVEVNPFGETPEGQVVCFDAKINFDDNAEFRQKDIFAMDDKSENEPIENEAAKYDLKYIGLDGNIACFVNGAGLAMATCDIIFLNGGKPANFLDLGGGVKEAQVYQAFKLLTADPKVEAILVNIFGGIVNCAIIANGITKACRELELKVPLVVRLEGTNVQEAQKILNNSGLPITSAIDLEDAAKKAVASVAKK
UniProt Q16563: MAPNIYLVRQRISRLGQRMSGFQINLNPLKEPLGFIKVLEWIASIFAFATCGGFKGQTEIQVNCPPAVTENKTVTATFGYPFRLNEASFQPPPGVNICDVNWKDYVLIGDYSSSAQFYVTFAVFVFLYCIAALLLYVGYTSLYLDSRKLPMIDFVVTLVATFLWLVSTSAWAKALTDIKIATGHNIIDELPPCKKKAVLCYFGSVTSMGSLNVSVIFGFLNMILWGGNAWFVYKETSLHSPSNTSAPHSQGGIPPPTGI
UniProt P63165, whole entry, looked up: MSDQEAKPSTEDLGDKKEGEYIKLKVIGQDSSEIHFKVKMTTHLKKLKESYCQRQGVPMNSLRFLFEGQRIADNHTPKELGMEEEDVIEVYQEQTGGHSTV
UniProt Q15833: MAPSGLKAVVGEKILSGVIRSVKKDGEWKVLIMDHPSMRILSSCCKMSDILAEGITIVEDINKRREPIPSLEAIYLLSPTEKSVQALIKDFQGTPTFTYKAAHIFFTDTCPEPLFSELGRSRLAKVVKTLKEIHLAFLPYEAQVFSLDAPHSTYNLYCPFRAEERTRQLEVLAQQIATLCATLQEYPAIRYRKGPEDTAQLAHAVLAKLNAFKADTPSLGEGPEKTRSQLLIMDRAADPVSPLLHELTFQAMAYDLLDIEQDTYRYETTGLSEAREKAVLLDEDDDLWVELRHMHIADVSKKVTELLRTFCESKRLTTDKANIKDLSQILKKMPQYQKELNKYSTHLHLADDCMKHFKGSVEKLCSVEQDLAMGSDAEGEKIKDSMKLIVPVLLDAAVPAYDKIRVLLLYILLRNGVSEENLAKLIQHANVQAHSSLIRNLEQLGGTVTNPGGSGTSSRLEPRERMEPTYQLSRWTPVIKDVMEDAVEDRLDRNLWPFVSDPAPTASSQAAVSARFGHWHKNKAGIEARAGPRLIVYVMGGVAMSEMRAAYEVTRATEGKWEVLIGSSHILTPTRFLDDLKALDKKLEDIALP
UniProt P31948, whole entry, looked up: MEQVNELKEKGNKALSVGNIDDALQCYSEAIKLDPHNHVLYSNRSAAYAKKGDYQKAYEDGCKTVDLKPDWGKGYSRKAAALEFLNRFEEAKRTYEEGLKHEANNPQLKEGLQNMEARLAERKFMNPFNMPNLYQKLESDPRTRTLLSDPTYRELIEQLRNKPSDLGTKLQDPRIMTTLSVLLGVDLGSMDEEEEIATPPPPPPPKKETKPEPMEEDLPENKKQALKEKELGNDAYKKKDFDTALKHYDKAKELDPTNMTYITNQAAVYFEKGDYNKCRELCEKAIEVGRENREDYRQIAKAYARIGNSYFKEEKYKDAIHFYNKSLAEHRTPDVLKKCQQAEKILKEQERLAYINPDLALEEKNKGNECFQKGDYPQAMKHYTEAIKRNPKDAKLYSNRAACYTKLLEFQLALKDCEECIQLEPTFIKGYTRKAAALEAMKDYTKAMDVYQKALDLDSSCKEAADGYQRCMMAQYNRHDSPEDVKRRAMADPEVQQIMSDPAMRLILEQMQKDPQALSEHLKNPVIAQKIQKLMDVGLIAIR
UniProt O15056: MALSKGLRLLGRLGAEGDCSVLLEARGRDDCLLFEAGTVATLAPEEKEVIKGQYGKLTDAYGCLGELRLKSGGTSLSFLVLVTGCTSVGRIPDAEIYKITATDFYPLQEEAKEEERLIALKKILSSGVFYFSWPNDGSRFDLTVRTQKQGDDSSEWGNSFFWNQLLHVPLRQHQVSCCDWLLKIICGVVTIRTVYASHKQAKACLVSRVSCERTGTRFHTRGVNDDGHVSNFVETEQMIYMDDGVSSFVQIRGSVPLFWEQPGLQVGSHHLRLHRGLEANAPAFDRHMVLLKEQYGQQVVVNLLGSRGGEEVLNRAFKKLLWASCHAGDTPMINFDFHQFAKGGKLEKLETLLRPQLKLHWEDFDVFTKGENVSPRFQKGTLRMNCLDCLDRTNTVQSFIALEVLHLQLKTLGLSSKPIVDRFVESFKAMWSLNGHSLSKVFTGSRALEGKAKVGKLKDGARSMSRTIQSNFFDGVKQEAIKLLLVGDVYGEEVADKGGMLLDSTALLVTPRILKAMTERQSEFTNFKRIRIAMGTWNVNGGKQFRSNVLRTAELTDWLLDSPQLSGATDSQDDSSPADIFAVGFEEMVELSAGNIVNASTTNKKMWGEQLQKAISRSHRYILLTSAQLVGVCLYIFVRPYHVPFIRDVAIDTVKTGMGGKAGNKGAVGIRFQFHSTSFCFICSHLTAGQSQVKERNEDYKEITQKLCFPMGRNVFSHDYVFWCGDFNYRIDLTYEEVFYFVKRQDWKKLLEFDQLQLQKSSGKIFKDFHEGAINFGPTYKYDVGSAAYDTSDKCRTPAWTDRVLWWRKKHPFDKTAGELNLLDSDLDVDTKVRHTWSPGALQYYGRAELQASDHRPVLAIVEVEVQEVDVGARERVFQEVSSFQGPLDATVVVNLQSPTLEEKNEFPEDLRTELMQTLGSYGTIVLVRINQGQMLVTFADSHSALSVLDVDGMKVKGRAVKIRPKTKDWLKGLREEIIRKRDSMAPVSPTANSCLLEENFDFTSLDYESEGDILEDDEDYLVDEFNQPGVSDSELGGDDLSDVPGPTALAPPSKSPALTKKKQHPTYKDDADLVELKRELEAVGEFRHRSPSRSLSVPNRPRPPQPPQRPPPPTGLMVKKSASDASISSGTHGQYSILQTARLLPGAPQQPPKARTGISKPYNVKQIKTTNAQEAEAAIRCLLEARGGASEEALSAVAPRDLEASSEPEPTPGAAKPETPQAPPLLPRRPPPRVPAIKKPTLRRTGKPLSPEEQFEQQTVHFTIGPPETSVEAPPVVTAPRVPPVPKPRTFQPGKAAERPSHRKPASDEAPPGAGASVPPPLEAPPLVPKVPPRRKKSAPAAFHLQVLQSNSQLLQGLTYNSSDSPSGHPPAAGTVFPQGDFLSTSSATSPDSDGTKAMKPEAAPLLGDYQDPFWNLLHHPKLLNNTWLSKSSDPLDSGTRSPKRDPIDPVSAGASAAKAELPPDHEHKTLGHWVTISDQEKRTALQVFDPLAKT
UniProt O95926: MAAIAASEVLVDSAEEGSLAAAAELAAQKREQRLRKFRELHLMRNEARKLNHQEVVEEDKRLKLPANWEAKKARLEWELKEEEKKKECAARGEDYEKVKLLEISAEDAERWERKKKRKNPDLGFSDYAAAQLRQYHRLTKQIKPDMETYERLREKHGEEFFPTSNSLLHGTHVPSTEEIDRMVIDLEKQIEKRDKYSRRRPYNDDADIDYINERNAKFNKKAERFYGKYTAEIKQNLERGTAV
UniProt Q15527: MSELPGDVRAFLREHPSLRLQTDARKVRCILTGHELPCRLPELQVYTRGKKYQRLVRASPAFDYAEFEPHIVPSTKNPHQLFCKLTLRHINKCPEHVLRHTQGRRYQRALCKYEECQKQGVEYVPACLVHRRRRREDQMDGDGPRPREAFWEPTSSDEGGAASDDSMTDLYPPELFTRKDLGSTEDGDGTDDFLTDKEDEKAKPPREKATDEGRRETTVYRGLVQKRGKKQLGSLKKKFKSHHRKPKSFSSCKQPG
UniProt P16949: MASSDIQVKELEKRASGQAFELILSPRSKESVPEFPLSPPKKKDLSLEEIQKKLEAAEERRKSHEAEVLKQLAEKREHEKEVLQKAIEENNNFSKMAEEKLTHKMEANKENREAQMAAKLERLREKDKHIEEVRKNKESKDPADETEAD

pictilisib = compound: CS(=O)(=O)N1CCN(Cc2cc3nc(-c4cccc5[nH]ncc45)nc(N4CCOCC4)c3s2)CC1 [pictilisib]
Method in brief: as §1

crizotinib = compound: C[C@@H](Oc1cc(-c2cnn(C3CCNCC3)c2)cnc1N)c1c(Cl)ccc(F)c1Cl [crizotinib]
Method in brief: as §1

[1] = compound: C[C@H](C1=CC=C(C=C1)C(=O)NC2=C3C=CNC3=NC=C2)N
Method in brief: as §1

duvelisib = compound: C[C@H](Nc1ncnc2nc[nH]c12)c1cc2cccc(Cl)c2c(=O)n1-c1ccccc1 [duvelisib]
Method in brief: as §1

gandotinib = compound: Cc1cc(Nc2cc(CN3CCOCC3)c3nc(C)c(Cc4ccc(Cl)cc4F)n3n2)n[nH]1 [gandotinib]
Method in brief: as §1

tozasertib = compound: Cc1cc(Nc2cc(N3CCN(C)CC3)nc(Sc3ccc(NC(=O)C4CC4)cc3)n2)n[nH]1 [tozasertib]
Method in brief: as §1

doramapimod = compound: Cc1ccc(-n2nc(C(C)(C)C)cc2NC(=O)Nc2ccc(OCCN3CCOCC3)c3ccccc23)cc1 [doramapimod]
Method in brief: as §1

bafetinib = compound: Cc1ccc(NC(=O)c2ccc(CN3CC[C@H](N(C)C)C3)c(C(F)(F)F)c2)cc1Nc1nccc(-c2cncnc2)n1 [bafetinib]
Method in brief: as §1

[2] = compound: Cc1cccc(CC(=O)N2CCc3c2ccc(-c2cn(C)c4ncnc(N)c24)c3F)n1
Method in brief: as §1

Target | log2 fold change (lapatinib) | log2 fold change (pictilisib) | log2 fold change (crizotinib) | log2 fold change [1] | log2 fold change (duvelisib) | log2 fold change (gandotinib) | log2 fold change (tozasertib) | log2 fold change (doramapimod) | log2 fold change (bafetinib) | log2 fold change [2]
STRBP (UniProt Q96SI9) | inactive: -0.005 | inactive: 0 | inactive: -0.006 | inactive: -0.016 | inactive: -0.008 | inactive: 0.039 | inactive: -0.009 | inactive: 0.05 | inactive: 0.012 | inactive: 0.04
SUPT7L (UniProt O94864) | inactive: -0.085 | inactive: 0.01 | inactive: -0.144 | inactive: 0.028 | inactive: 0.011 | inactive: 0.01 | inactive: 0.036 | inactive: -0.047 | inactive: 0.021 | inactive: 0.041
SUMF1 (UniProt Q8NBK3) | inactive: -0.03 | inactive: 0.012 | inactive: -0.003 | inactive: -0.059 | inactive: 0.01 | inactive: 0.022 | inactive: 0.097 | inactive: -0.024 | inactive: 0.011 | inactive: -0.046
STK36 (UniProt Q9NRP7) | inactive: -0.213 | inactive: -0.007 | inactive: -0.833 | inactive: -0.551 | inactive: 0.191 | inactive: 0.284 | inactive: 0 | inactive: 0.202 | inactive: -0.322 | inactive: 0.398
STX18 (UniProt Q9P2W9) | inactive: -0.007 | inactive: 0.058 | inactive: -0.069 | inactive: -0.023 | inactive: -0.029 | inactive: -0.093 | inactive: 0.187 | inactive: 0.002 | inactive: -0.072 | inactive: 0.06
STX10 (UniProt O60499) | inactive: -0.062 | inactive: 0.07 | inactive: -0.078 | inactive: 0.068 | inactive: 0.002 | inactive: 0.151 | inactive: 0.027 | inactive: -0.013 | inactive: -0.016 | inactive: 0.045
SUCLG2 (UniProt Q96I99) | inactive: -0.032 | inactive: 0.007 | inactive: 0.005 | inactive: -0.016 | inactive: 0.021 | inactive: -0.048 | inactive: 0.012 | inactive: 0.022 | inactive: -0.005 | inactive: -0.009
SYPL1 (UniProt Q16563) | inactive: 0.015 | inactive: -0.025 | inactive: -0.001 | active: -0.376 | inactive: 0.004 | inactive: 0.16 | inactive: -0.028 | inactive: -0.009 | inactive: -0.034 | inactive: 0.163
SUPT5H (UniProt O00267) | inactive: -0.016 | inactive: -0.009 | inactive: 0.017 | inactive: 0.058 | inactive: 0.003 | inactive: -0.016 | inactive: 0.012 | inactive: 0.009 | inactive: -0.023 | inactive: -0.025
SUMO1 (UniProt P63165) | inactive: 0.01 | inactive: -0.051 | inactive: -0.025 | inactive: -0.042 | inactive: 0.027 | inactive: -0.002 | inactive: 0.066 | inactive: 0.07 | inactive: -0.004 | inactive: -0.011
STXBP2 (UniProt Q15833) | inactive: -0.024 | inactive: -0.005 | inactive: -0.026 | inactive: 0.027 | inactive: -0.009 | inactive: -0.078 | inactive: 0.007 | inactive: 0.013 | inactive: -0.028 | inactive: 0.013
SUGP1 (UniProt Q8IWZ8) | inactive: 0.015 | inactive: -0.002 | inactive: 0.036 | inactive: 0.001 | inactive: -0.009 | inactive: 0.072 | inactive: -0.005 | inactive: -0.035 | inactive: 0.01 | inactive: -0.005
STIP1 isoform 2 (UniProt P31948) | inactive: 0.009 | inactive: 0.006 | inactive: 0.065 | inactive: 0.085 | inactive: 0.017 | inactive: -0.053 | inactive: 0.006 | inactive: -0.021 | inactive: 0.025 | inactive: -0.119
SYNJ2 (UniProt O15056) | inactive: 0.012 | inactive: -0.002 | inactive: -0.051 | inactive: 0.057 | inactive: -0.056 | inactive: -0.115 | inactive: -0.022 | inactive: 0.053 | inactive: -0.116 | inactive: 0.088
STK4 (UniProt Q13043) | inactive: -0.029 | inactive: -0.025 | inactive: 0.382 | inactive: -0.104 | inactive: 0.004 | active: 0.504 | inactive: 0.27 | inactive: -0.027 | inactive: -0.053 | inactive: 0.062
STRN (UniProt O43815) | inactive: -0.005 | inactive: 0.004 | inactive: -0.007 | inactive: -0.012 | inactive: -0.01 | inactive: -0.041 | inactive: -0.014 | inactive: 0 | inactive: 0.016 | inactive: 0.025
STRIP1 (UniProt Q5VSL9) | inactive: 0.009 | inactive: -0.062 | inactive: -0.016 | inactive: 0 | inactive: 0.03 | inactive: -0.024 | inactive: -0.038 | inactive: -0.006 | inactive: -0.026 | inactive: 0.027
SYF2 (UniProt O95926) | inactive: 0.026 | inactive: 0.003 | inactive: -0.008 | inactive: -0.023 | inactive: -0.144 | inactive: 0.055 | inactive: -0.066 | inactive: 0.04 | inactive: -0.026 | inactive: -0.016
SWAP70 (UniProt Q9UH65) | inactive: 0.007 | inactive: 0 | inactive: 0.044 | inactive: -0.158 | inactive: 0.023 | inactive: 0.074 | inactive: 0.011 | inactive: -0.004 | inactive: 0.004 | inactive: 0.083
STT3B (UniProt Q8TCJ2) | inactive: 0.01 | inactive: 0.026 | inactive: -0.044 | inactive: -0.112 | inactive: -0.008 | inactive: 0.152 | inactive: -0.007 | inactive: 0.06 | inactive: -0.014 | inactive: 0.128
TAF4B (UniProt Q92750) | inactive: -0.165 | inactive: -0.108 | inactive: 0.008 | inactive: 0.057 | inactive: 0.03 | inactive: -0.124 | inactive: -0.333 | inactive: -0.018 | inactive: -0.104 | inactive: -0.082
TADA3 (UniProt O75528) | inactive: -0.005 | inactive: 0.009 | inactive: 0.017 | inactive: -0.09 | inactive: -0.002 | inactive: 0.143 | inactive: 0.066 | inactive: 0.006 | inactive: -0.051 | inactive: 0.087
STON2 isoform 3 (UniProt Q8WXE9) | inactive: 0.021 | inactive: -0.004 | inactive: -0.08 | inactive: -0.009 | inactive: -0.009 | inactive: 0.047 | inactive: 0 | inactive: 0.044 | inactive: -0.065 | inactive: 0.041
SYNJ2BP-COX16, A0A087WYV9 | inactive: -0.182 | inactive: -0.032 | inactive: 0.021 | inactive: 0.124 | inactive: -0.005 | inactive: -0.09 | inactive: -0.055 | inactive: -0.001 | inactive: -0.047 | inactive: 0.004
SURF2 (UniProt Q15527) | inactive: -0.005 | inactive: -0.049 | inactive: -0.031 | inactive: -0.008 | inactive: 0.014 | inactive: 0.092 | inactive: -0.061 | inactive: -0.018 | inactive: -0.055 | inactive: 0.111
TAF6 isoform 3 (UniProt P49848) | inactive: -0.079 | inactive: -0.101 | inactive: -0.074 | inactive: -0.002 | inactive: 0.081 | inactive: 0.013 | inactive: -0.006 | inactive: 0.091 | inactive: 0.007 | inactive: 0.018
STMN1 (UniProt P16949) | inactive: -0.024 | inactive: 0 | inactive: 0.033 | inactive: -0.027 | inactive: -0.014 | inactive: 0 | inactive: -0.016 | inactive: -0.051 | inactive: 0.018 | inactive: -0.088
STX12 (UniProt Q86Y82) | inactive: -0.004 | inactive: 0.012 | inactive: 0.017 | inactive: -0.027 | inactive: -0.007 | inactive: 0.063 | inactive: -0.027 | inactive: 0.017 | inactive: 0.041 | inactive: 0.021
STON1 isoform 2 (UniProt Q9Y6Q2) | inactive: -0.128 |  |  |  |  |  |  |  |  | 
STXBP3 (UniProt O00186) | inactive: 0.008 | inactive: -0.104 | inactive: 0.037 | inactive: 0.055 | inactive: 0.007 | inactive: -0.115 | inactive: -0.006 | inactive: -0.055 | inactive: -0.047 | inactive: -0.037

Shown as a markdown table: entries from further up.

| Target | log2 fold change (lapatinib) | log2 fold change (pictilisib) | log2 fold change (crizotinib) | log2 fold change [1] | log2 fold change (duvelisib) | log2 fold change (gandotinib) | log2 fold change (tozasertib) | log2 fold change (doramapimod) | log2 fold change (bafetinib) | log2 fold change [2] |
| --- | --- | --- | --- | --- | --- | --- | --- | --- | --- | --- |
| SURF2 (UniProt Q15527) | inactive: -0.005 | inactive: -0.049 | inactive: -0.031 | inactive: -0.008 | inactive: 0.014 | inactive: 0.092 | inactive: -0.061 | inactive: -0.018 | inactive: -0.055 | inactive: 0.111 |
| TAF6 isoform 3 (UniProt P49848) | inactive: -0.079 | inactive: -0.101 | inactive: -0.074 | inactive: -0.002 | inactive: 0.081 | inactive: 0.013 | inactive: -0.006 | inactive: 0.091 | inactive: 0.007 | inactive: 0.018 |

From the supplement of paper PMC10849652
